Taken from: PubChem BioAssay AID504793 (Drosophila RNAi Screening Center, 2011)

- Assay: 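Whole-genome screen for parts of the DNA damage checkpoint at G2/M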 (primary screen)
- Cell system: Drosophila S2R+ cells
- Knock-down reagent: long dsRNA against Drosophila genes, about 0.25 µg dsRNA per well
- Duration: 4 days of dsRNA, then 4 hours of drug before read-out
- Conditions: doxorubicin 0.5 µM for 4 hours to cause double-strand breaks, in cells also given a low, harmless dose of dsRNA against nbs to sensitise the assay
- Measured: 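Per-well count of mitotic cells stained for phospho-histone H3 after doxorubicin exposure, used as mitotic index; counts are raw and not normalised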
- Direction: mitotic cells: higher = more cells in mitosis, weaker G2 arrest
- Hit rule: 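a call needs confirmation in secondary tests, with other dsRNAs and a check of mitotic timing without damage, not just a high primary count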
- Calls: active = confirmed in follow-up tests; inactive = not confirmed
In all, the deposit lists about 23,000 reagents; this is a random part of those that have a named target and a result. Of all reagents, 62 (0.27%) got an active call. 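Calls come from follow-up tests whose scores are not deposited, so confirmed genes may have low counts here; counts are not normalised per plate.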 Raw values vary from plate to plate and are shown uncorrected. Reagents against one gene are numbered here. Names joined by + are all predicted targets of the reagent. No sequences are given here.

| target | dsRNA no. | mitotic cells, replicate 1 | mitotic cells, replicate 2 | call |
| --- | --- | --- | --- | --- |
| CG4210 | 1 | 10 | – | inactive |
| CG4210 | 2 | 5 | – | inactive |
| CG7582 | 1 | 19 | – | inactive |
| CG5860 | 1 | 4 | – | inactive |
| Mf (Myofilin) | 1 | 6 | – | inactive |
| beat-Ia (beaten path Ia) | 1 | 10 | – | inactive |
| beat-Ia (beaten path Ia) | 2 | 17 | – | inactive |
| CG17780 + CG17781 | 1 | 8 | – | inactive |
| CG17780 + CG17781 | 2 | 4 | – | inactive |
| CG17780 + CG17781 | 3 | 10 | – | inactive |
| mRpL50 (mitochondrial ribosomal protein L50) | 1 | 8 | – | inactive |
| mRpL50 (mitochondrial ribosomal protein L50) | 2 | 7 | – | inactive |
| hdm (hold'em) | 1 | 15 | – | inactive |
| Ist1 | 1 | 4 | – | inactive |
| Ist1 | 2 | 14 | – | inactive |
| CG1703 | 1 | 5 | – | inactive |
| Mef2 (Myocyte enhancer factor 2) | 1 | 7 | – | inactive |
| Mef2 (Myocyte enhancer factor 2) | 2 | 6 | – | inactive |
| CG12511 | 1 | 6 | – | inactive |
| CG13678 | 1 | 7 | – | inactive |
| stl (stall) | 1 | 13 | – | inactive |
| cwo (clockwork orange) | 1 | – | – | inactive |
| cwo (clockwork orange) | 2 | 6 | – | inactive |
| gcm2 | 1 | 5 | 2 | inactive |
| gcm2 | 2 | 7 | – | inactive |
| polyph (polyphemus) | 1 | 5 | – | inactive |
| Pdi (Protein disulfide isomerase) | 1 | 9 | – | inactive |
| Pdi (Protein disulfide isomerase) | 2 | 7 | – | inactive |
| CG17928 | 1 | 14 | – | inactive |
| CG10979 | 1 | 17 | – | inactive |
| Cyp12a5 (Cytochrome P450 12a5) | 1 | 9 | – | inactive |
| Cyp12a5 (Cytochrome P450 12a5) | 2 | 5 | – | inactive |
| CG18210 (retired record) | 1 | 5 | – | inactive |
| CG18210 (retired record) | 2 | 6 | – | inactive |
| CG34345 | 1 | 2 | – | inactive |
| CG14647 | 1 | 4 | – | inactive |
| CG14647 | 2 | 12 | – | inactive |
| comt (comatose) | 1 | 12 | – | inactive |
| comt (comatose) | 2 | 6 | – | inactive |
| Lcp65Ag3 (Larval cuticle protein) | 1 | 12 | – | inactive |
| Pur-alpha (Purine-rich binding protein-alpha) | 1 | 8 | – | inactive |
| QC (Glutaminyl cyclase) | 1 | 7 | – | inactive |
| GstD11 (Glutathione S transferase D11) | 1 | 7 | – | inactive |
| GstD11 (Glutathione S transferase D11) | 2 | 7 | – | inactive |
| pigs (pickled eggs) | 1 | 12 | – | inactive |
| pigs (pickled eggs) | 2 | 16 | – | inactive |
| pigs (pickled eggs) | 3 | 7 | – | inactive |
| Z600 | 1 | 3 | – | inactive |
| CG15394 | 1 | 10 | – | inactive |
| Rnf146 (Ring finger protein 146) | 1 | 6 | – | inactive |
| crc (cryptocephal) | 1 | 8 | – | inactive |
| Pebp1 (Phosphatidylethanolamine-binding protein 1) | 1 | 7 | – | inactive |
| CG17672 | 1 | 12 | – | inactive |
| CG17672 | 2 | 6 | – | inactive |
| CG33170 | 1 | 6 | – | inactive |
| Mocs1 (Molybdenum cofactor synthesis 1) | 1 | 11 | – | inactive |
| Ogg1 (8-oxoguanine DNA glycosylase) | 1 | 6 | – | inactive |
| eca (eclair) | 1 | 18 | – | inactive |
| Uro (Urate oxidase) | 1 | 7 | – | inactive |
| CG31109 | 1 | 13 | – | inactive |
| CG46339 | 1 | 4 | – | inactive |
| CG46339 | 2 | 5 | – | inactive |
| Hs3st-B (Heparan sulfate 3-O sulfotransferase-B) | 1 | 7 | – | inactive |
| CG1695 | 1 | 6 | – | inactive |
| CG1695 | 2 | 3 | – | inactive |
| Kdm5 (Lysine demethylase 5) | 1 | 2 | – | inactive |
| Kdm5 (Lysine demethylase 5) | 2 | 4 | – | inactive |
| org-1 (optomotor-blind-related-gene-1) | 1 | 14 | – | inactive |
| org-1 (optomotor-blind-related-gene-1) | 2 | 7 | – | inactive |
| CG13855 | 1 | 3 | – | inactive |
| CG13855 | 2 | 7 | – | inactive |
| Osi19 (Osiris 19) | 1 | 4 | – | inactive |
| Ttc19 (Tetratricopeptide repeat domain 19) | 1 | 7 | – | inactive |
| sns (sticks and stones) | 1 | 4 | – | inactive |
| sns (sticks and stones) | 2 | 10 | – | inactive |
| sns (sticks and stones) | 3 | 5 | – | inactive |
| sns (sticks and stones) | 4 | 8 | – | inactive |
| CG11790 | 1 | 2 | – | inactive |
| CG43861 + CG12508 (retired record) | 1 | 4 | – | inactive |
| CG11426 | 1 | 6 | – | inactive |
| CG11426 | 2 | 3 | – | inactive |
| GlcAT-S (Glucuronyltransferase S) | 1 | 4 | – | inactive |
| GlcAT-S (Glucuronyltransferase S) | 2 | 10 | – | inactive |
| RhoGAP54D (Rho GTPase activating protein at 54D) | 1 | 6 | – | inactive |
| RhoGAP54D (Rho GTPase activating protein at 54D) | 2 | 3 | – | inactive |
| Mtpbeta (Mitochondrial trifunctional protein beta subunit) | 1 | 10 | – | inactive |
| LysD + LysC (retired record) | 1 | 3 | – | inactive |
| LysD + LysC (retired record) | 2 | 16 | – | inactive |
| CG4907 | 1 | 9 | – | inactive |
| CG10035 | 1 | 1 | – | inactive |
| CG10035 | 2 | 4 | – | inactive |
| lov (jim lovell) | 1 | 3 | – | inactive |
| lov (jim lovell) | 2 | 15 | – | inactive |
| lov (jim lovell) | 3 | 8 | – | inactive |
| Cks85A (Cyclin-dependent kinase subunit 85A) | 1 | 4 | – | inactive |
| Hsp60B (Heat shock protein 60B) | 1 | 6 | – | inactive |
| Fbp1 (Fat body protein 1) | 1 | 5 | – | inactive |
| Fbp1 (Fat body protein 1) | 2 | 9 | – | inactive |
| ASPP | 1 | 12 | – | inactive |
| CG10384 | 1 | 5 | – | inactive |
| CG10384 | 2 | 7 | – | inactive |
| Tsp42Eg (Tetraspanin 42Eg) | 1 | 9 | – | inactive |
| CG42516 + Pbp49 | 1 | 10 | – | inactive |
| CG3557 | 1 | 4 | – | inactive |
| dec (defective chorion) | 1 | 10 | – | inactive |
| dec (defective chorion) | 2 | 7 | – | inactive |
| dec (defective chorion) | 3 | 6 | – | inactive |
| sens-2 (senseless-2) | 1 | 5 | – | inactive |
| sens-2 (senseless-2) | 2 | 5 | – | inactive |
| Obp56g (Odorant-binding protein 56g) | 1 | 9 | – | inactive |
| Or85c (Odorant receptor 85c) | 1 | 2 | – | inactive |
| Orc4 (Origin recognition complex subunit 4) | 1 | 7 | – | inactive |
| Orc4 (Origin recognition complex subunit 4) | 2 | 4 | – | inactive |
| Klp59C (Kinesin-like protein at 59C) | 1 | 5 | – | inactive |
| Klp59C (Kinesin-like protein at 59C) | 2 | 4 | – | inactive |
| CG42249 | 1 | 15 | – | inactive |
| CG42249 | 2 | 22 | – | inactive |
| CG42249 | 3 | 8 | – | inactive |
| CG18327 | 1 | 5 | – | inactive |
| CG18327 | 2 | 11 | – | inactive |
| CG3061 | 1 | 7 | – | inactive |
| CG3061 | 2 | 7 | – | inactive |
| CG5623 | 1 | 6 | – | inactive |
| pdm2 (POU domain protein 2) | 1 | 4 | – | inactive |
| pdm2 (POU domain protein 2) | 2 | 4 | – | inactive |
| p (pink) | 1 | 4 | – | inactive |
| p (pink) | 2 | 1 | – | inactive |
| CG9698 | 1 | 7 | – | inactive |
| Cyp313a4 (Cytochrome P450 313a4) | 1 | 2 | – | inactive |
| CG9855 | 1 | 9 | 12 | inactive |
| CG9855 | 2 | 7 | – | inactive |
| CG7432 | 1 | 16 | – | inactive |
| mtTFB1 + Ccdc56 | 1 | 16 | – | inactive |
| l(2)34Fd (lethal (2) 34Fd) | 1 | 13 | – | inactive |
| Vm26Ac (Vitelline membrane 26Aac) | 1 | 4 | – | inactive |
| Vm26Ac (Vitelline membrane 26Aac) | 2 | 2 | – | inactive |
| CG12081 | 1 | 6 | – | inactive |
| pins (partner of inscuteable) | 1 | 7 | – | inactive |
| CG14627 | 1 | 15 | – | inactive |
| CG3764 | 1 | 7 | – | inactive |

In a second layout: results already given.
{"target":"CG46339","dsRNA no.":1,"mitotic cells, replicate 1":4,"call":"inactive"}
{"target":"CG46339","dsRNA no.":2,"mitotic cells, replicate 1":5,"call":"inactive"}
{"target":"Hs3st-B (Heparan sulfate 3-O sulfotransferase-B)","dsRNA no.":1,"mitotic cells, replicate 1":7,"call":"inactive"}
{"target":"CG1695","dsRNA no.":1,"mitotic cells, replicate 1":6,"call":"inactive"}
{"target":"CG1695","dsRNA no.":2,"mitotic cells, replicate 1":3,"call":"inactive"}
{"target":"Kdm5 (Lysine demethylase 5)","dsRNA no.":1,"mitotic cells, replicate 1":2,"call":"inactive"}
